{"source": "paper PMC3105124", "about": "(Brain research, 2011)", "key": {"[1]": {"test_system": "L5/L6 spinal nerve ligated male Sprague Dawley rats", "test": "Mechanical hypersensitivity", "format": "in vivo, rat", "details": "10 μg/5μL intrathecal (morphine 10 μg); vehicle AUC=22.07 ± 3.02"}, "[2]": {"test_system": "L5/L6 spinal nerve ligated male Sprague Dawley rats", "test": "Thermal hypersensitivity", "format": "in vivo, rat", "set-up": "unit not given beside the values", "details": "morphine (10 mg) intrathecal; vehicle AUC=55.52 ± 2.74"}}}
{"smiles": "CN1CC[C@]23c4c5ccc(O)c4O[C@H]2[C@@H](O)C=C[C@H]3[C@H]1C5", "note": "[morphine, reference compound]", "values": [{"measurement": "AUC, paw withdrawal threshold (mechanical)", "setting": "[1]", "value": "34.96 ± 7.99"}, {"measurement": "AUC, paw withdrawal latency (thermal)", "setting": "[2]", "value": "77.33 ± 6.71"}]}
